Source: the supplement of paper PMC12067093, “Discovery and optimisation of a covalent ligand for TRIM25 and its application to targeted protein ubiquitination” (Chemical Science, 2025)
The list shows a part of the results.

The chains behind the UniProt entries cited, without tags or fusion partners. Where a name states a change or a piece, a line headed by the entry shows the natural chain unless it says otherwise.
UniProt Q9NZ09: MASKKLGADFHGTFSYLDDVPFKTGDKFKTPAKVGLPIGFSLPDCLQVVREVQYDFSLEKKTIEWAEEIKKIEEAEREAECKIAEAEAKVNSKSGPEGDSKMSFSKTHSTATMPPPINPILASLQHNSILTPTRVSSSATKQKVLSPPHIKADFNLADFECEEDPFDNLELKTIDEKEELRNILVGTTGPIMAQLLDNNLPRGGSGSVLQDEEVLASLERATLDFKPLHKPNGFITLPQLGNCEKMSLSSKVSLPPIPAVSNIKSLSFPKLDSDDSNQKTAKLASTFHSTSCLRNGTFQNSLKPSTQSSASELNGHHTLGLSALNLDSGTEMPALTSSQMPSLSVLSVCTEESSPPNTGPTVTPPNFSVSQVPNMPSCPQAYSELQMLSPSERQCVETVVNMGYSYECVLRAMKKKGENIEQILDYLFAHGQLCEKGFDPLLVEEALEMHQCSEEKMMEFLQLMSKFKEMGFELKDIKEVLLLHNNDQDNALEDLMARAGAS
UniProt Q16763: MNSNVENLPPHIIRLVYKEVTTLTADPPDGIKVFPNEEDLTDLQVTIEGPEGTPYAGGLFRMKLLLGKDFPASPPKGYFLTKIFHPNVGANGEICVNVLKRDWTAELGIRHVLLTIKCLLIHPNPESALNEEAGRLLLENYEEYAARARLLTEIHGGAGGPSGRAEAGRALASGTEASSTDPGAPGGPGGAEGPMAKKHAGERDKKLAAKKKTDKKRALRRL
UniProt Q2T9J0: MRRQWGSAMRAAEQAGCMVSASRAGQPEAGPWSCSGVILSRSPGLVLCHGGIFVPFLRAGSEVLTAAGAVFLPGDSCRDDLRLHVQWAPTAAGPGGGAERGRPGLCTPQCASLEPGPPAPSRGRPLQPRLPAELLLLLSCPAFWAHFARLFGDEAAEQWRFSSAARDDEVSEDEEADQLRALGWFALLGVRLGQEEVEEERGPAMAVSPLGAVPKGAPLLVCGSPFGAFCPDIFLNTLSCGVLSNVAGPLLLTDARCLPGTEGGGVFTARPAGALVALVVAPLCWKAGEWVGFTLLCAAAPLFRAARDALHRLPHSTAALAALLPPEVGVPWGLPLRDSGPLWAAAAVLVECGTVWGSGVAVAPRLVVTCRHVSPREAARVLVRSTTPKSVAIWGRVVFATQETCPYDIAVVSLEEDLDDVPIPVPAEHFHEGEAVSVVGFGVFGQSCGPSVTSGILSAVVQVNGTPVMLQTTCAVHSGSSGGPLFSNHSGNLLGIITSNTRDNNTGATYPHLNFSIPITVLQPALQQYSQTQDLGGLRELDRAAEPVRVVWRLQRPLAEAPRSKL
UniProt Q8N806: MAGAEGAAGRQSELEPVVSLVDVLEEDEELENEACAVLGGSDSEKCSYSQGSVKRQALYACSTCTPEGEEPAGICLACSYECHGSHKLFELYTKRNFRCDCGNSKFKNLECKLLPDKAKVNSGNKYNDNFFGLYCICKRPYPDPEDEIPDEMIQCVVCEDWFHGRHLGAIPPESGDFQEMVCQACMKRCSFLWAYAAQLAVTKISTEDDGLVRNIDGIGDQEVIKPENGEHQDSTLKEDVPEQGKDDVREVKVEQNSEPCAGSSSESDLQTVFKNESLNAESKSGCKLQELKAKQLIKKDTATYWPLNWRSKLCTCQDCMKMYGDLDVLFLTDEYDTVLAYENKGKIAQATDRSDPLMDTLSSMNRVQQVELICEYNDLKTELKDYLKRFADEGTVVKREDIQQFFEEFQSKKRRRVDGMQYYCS
UniProt P51965: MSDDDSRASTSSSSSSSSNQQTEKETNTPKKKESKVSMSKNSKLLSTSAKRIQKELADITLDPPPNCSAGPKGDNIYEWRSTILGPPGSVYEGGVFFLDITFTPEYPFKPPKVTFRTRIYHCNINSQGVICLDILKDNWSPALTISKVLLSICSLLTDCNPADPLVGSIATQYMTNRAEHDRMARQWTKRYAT
UniProt Q8IWV8: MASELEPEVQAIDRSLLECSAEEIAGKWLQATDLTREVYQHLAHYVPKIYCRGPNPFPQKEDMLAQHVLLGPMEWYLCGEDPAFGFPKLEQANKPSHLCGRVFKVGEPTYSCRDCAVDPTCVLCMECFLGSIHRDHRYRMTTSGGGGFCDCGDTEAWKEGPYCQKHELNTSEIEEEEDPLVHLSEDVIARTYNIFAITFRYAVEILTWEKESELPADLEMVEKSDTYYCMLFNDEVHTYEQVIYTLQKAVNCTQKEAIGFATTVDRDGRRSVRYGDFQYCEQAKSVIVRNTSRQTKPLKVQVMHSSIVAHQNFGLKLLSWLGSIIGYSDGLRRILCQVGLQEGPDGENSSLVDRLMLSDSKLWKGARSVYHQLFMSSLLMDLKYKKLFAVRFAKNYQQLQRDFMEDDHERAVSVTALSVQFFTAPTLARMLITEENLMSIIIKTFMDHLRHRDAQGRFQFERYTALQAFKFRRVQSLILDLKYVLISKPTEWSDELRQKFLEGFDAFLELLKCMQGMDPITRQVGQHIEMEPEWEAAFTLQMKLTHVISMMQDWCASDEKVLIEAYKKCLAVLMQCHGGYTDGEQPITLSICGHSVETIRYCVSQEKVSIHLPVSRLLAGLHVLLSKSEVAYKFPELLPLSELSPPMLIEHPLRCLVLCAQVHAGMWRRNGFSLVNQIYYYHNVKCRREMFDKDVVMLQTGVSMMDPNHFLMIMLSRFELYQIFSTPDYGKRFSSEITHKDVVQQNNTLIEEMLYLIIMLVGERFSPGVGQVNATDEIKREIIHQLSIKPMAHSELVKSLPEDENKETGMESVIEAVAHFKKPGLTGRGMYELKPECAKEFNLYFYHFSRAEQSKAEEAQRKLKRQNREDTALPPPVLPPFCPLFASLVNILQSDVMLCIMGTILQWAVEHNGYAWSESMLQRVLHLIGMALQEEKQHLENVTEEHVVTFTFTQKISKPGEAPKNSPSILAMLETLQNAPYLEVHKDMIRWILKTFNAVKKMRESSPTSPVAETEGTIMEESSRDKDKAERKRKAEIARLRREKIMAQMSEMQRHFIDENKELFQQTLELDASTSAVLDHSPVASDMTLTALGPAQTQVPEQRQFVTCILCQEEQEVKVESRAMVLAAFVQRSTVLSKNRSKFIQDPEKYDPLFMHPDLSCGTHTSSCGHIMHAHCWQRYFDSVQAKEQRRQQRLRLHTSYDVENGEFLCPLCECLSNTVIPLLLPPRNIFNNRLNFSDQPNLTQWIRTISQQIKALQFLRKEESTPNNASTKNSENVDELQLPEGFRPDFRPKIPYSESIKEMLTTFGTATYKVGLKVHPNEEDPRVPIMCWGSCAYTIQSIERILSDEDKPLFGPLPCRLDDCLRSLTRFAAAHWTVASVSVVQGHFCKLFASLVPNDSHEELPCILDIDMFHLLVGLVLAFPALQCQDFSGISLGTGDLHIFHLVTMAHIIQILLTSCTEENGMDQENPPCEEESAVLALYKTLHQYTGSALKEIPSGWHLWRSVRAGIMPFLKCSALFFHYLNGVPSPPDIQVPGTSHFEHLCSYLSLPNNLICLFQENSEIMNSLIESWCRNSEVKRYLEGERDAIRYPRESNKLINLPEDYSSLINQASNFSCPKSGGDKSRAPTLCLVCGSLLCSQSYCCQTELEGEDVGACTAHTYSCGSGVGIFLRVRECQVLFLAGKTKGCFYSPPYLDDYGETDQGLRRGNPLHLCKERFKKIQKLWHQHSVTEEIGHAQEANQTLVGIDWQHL
UniProt Q6ZT12: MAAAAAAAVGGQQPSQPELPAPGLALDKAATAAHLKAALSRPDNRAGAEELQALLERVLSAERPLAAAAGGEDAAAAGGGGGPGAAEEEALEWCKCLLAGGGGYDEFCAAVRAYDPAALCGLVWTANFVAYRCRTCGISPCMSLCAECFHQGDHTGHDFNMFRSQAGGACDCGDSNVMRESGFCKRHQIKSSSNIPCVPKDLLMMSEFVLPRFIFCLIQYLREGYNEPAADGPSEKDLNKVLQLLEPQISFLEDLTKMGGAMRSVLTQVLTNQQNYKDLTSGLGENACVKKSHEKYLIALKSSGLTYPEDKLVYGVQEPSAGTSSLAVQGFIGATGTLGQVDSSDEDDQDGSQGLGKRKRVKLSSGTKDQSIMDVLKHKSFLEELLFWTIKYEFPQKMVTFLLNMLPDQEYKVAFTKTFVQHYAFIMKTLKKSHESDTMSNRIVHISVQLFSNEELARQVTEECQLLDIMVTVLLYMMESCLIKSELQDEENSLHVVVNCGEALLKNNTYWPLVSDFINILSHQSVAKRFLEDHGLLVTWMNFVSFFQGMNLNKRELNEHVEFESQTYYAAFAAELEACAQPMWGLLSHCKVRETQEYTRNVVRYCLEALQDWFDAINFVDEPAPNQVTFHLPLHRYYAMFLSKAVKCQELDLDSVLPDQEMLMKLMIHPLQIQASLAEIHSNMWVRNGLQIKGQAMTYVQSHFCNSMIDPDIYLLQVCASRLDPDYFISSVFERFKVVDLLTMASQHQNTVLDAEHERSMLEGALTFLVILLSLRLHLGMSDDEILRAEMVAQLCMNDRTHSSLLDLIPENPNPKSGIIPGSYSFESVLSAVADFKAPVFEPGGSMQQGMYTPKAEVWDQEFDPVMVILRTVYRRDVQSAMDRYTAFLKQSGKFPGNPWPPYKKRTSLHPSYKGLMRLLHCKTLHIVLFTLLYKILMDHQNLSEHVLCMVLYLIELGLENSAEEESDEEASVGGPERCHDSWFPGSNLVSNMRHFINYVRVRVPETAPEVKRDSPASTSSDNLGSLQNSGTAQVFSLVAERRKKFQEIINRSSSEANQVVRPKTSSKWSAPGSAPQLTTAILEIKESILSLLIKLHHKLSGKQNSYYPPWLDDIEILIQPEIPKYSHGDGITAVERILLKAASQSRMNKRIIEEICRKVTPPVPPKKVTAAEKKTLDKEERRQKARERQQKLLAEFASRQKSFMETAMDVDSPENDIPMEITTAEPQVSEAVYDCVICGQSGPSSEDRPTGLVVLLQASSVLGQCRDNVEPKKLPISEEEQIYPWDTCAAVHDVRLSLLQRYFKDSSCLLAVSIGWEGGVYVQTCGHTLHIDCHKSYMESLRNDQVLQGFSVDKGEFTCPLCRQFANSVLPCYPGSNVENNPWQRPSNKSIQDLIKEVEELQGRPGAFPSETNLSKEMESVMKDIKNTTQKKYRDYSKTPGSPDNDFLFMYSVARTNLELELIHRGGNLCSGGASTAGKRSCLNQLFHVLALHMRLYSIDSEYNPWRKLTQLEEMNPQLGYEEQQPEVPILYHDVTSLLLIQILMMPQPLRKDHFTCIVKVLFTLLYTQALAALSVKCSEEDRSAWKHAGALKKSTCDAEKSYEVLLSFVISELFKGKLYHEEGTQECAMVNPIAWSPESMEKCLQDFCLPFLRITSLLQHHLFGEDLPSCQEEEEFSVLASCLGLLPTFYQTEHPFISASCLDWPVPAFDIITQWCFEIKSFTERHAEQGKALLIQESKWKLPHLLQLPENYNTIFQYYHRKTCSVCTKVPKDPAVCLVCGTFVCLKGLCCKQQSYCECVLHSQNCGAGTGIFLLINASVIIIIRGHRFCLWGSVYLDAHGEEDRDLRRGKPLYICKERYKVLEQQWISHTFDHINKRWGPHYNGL

Compound: Cc1cc(ccc1-c1ccccc1)C(=O)N1CCCN(CC1)C(=O)CCl [compound 10]
Experiment: probe-labelled cysteine peptide fold change vs DMSO (competition) (log2 fold change); higher = less target engagement (more negative = stronger competition)
Conditions: THP-1, incubation time: 4 h
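Also: competitive profiling in live THP-1 cells: cysteine peptides tagged with an iodoacetamide desthiobiotin (IA-DTB) probe, intensity after compound treatment relative to DMSO-treated cells.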

| Target | probe-labelled cysteine peptide fold change (10 µM) | probe-labelled cysteine peptide fold change (50 µM) |
| --- | --- | --- |
| UBAP1_Q9NZ09_243_ATLDFKPLHKPNGFITLPQLGNCEK (UniProt Q9NZ09) | -0.239 | -1.36 |
| UBE2S_Q16763_118_CLLIHPNPESALNEEAGR (UniProt Q16763) | 0.161 | 0.197 |
| UBAP1_Q9NZ09_452_GFDPLLVEEALEMHQCSEEK (UniProt Q9NZ09) | -0.0154 | -0.24 |
| TYSND1_Q2T9J0_17_AAEQAGCMVSASR (UniProt Q2T9J0) | 0.0109 | 0.0758 |
| UBR4_Q5T4S7_1962_LASAPVPFTVLSLTGNPCK (UniProt Q5T4S7) | -0.0379 | 0.0709 |
| UBR7_Q8N806_158_RPYPDPEDEIPDEMIQCVVCEDWFHGR (UniProt Q8N806) | -0.0128 | -0.397 |
| UBE2E1_P51965_131_IYHCNINSQGVICLDILK (UniProt P51965) | -0.196 | 0.423 |
| UBR2_Q8IWV8_112_VGEPTYSCR (UniProt Q8IWV8) | -0.121 | -0.18 |
| UBR3_Q6ZT12_1858_GKPLYICK (UniProt Q6ZT12) | -0.135 | -0.393 |
| UBR2_Q8IWV8_1360_ILSDEDKPLFGPLPCR (UniProt Q8IWV8) | -0.203 | -0.412 |
| UBE2R2_Q712K3_93_MWHPNIYENGDVCISILHPPVDDPQSGELPSER (UniProt Q712K3) | -0.0923 | -0.00539 |
| UBR4_Q5T4S7_4839+4841_QMEELIEEPGLTCCICR (UniProt Q5T4S7) | 0.22 | 0.247 |
| UBA1_P22314_748_CPHPLTFDVNNPLHLDYVMAAANLFAQTYGLTGSQDR (UniProt P22314) | 0.129 | 0.0777 |

Shown with bars between the fields: part of the list above
Target | probe-labelled cysteine peptide fold change (10 µM) | probe-labelled cysteine peptide fold change (50 µM)
UBE2E1_P51965_131_IYHCNINSQGVICLDILK (UniProt P51965) | -0.196 | 0.423
UBR2_Q8IWV8_112_VGEPTYSCR (UniProt Q8IWV8) | -0.121 | -0.18
UBR3_Q6ZT12_1858_GKPLYICK (UniProt Q6ZT12) | -0.135 | -0.393
